In patent publication US11306344B2, “Spectral intensity ratio (SIR) analysis for rapid live microbial enumeration” (TACOUNT EXACT LTD., priority 2015, dated 2022):
Some entries share one result that the patent states for a list of compounds. At least one compound was matched to its structure with a doubt left.

Assays:
E. coli #8739 = test: Flow-Cytometry SIR and NVP of dye-stained bacteria; format: cell-based; details: inactivated E. coli
Enterococcus faecalis = test: Flow-Cytometry SIR and NVP of dye-stained bacteria; format: cell-based; details: inactivated E. faecalis

| Compound | NVP (E. coli #8739) | NVP (Enterococcus faecalis) |
| --- | --- | --- |
| CCN(CC)c1ccc(C=CC=CC=Cc2cc[n+](CCC[N+](CC)(CC)CC)cc2)cc1.[Br-].[Br-] [FM® 4-64, N-(3-Triethylammoniumpropyl)-4-(6-(4-(Diethylamino) Phenyl) Hexatrienyl) Pyridinium Dibromide] | > 1 | > 1 |
| CCCCN(CCCC)c1ccc(/C=C/c2cc[n+](CCC[N+](CC)(CC)CC)cc2)cc1.[Br-].[Br-] [FM® 1-43, N-(3-Triethylammoniumpropyl)-4-(4-(Dibutylamino) Styryl) Pyridinium Dibromide] | > 1 | > 1 |
